Measured values reported in patent US20130005747A1, “METHOD FOR SELECTING A CANCER THERAPY” (Cyclacel Limited, priority 2010, published 2013).

How the values were obtained:
[1] = test system: ACHN; assay: Fractional growth, 72 h seliciclib; type: cell-based, human; conditions: ACHN (Kidney), 15 μM seliciclib
Description: (§1) A total of 270 human cancer cell lines from diverse cancer histopathologic types were investigated.

[2] = test system: COLO 853; assay: Fractional growth, 72 h seliciclib; type: cell-based, human; conditions: COLO 853 (Skin), 15 μM seliciclib
Description: as §1

[3] = test system: FTC-133; assay: Fractional growth, 72 h seliciclib; type: cell-based, human; conditions: FTC-133 (Thyroid), 15 μM seliciclib
Description: as §1

[4] = test system: H2869; assay: Fractional growth, 72 h seliciclib; type: cell-based, human; conditions: H2869 (Lung), 15 μM seliciclib
Description: as §1

[5] = test system: HCC-827; assay: Fractional growth, 72 h seliciclib; type: cell-based, human; conditions: HCC-827 (Lung: NSCLC), 15 μM seliciclib
Description: as §1

[6] = test system: HT-1197; assay: Fractional growth, 72 h seliciclib; type: cell-based, human; conditions: HT-1197 (Bladder), 15 μM seliciclib
Description: as §1

[7] = test system: HT-29; assay: Fractional growth, 72 h seliciclib; type: cell-based, human; conditions: HT-29 (Intestine), 15 μM seliciclib
Description: as §1

[8] = test system: J82; assay: Fractional growth, 72 h seliciclib; type: cell-based, human; conditions: J82 (Bladder), 15 μM seliciclib
Description: as §1

[9] = test system: LCLC-97TM1; assay: Fractional growth, 72 h seliciclib; type: cell-based, human; conditions: LCLC-97TM1 (Lung: NSCLC), 15 μM seliciclib
Description: as §1

[10] = test system: MDA-H2774; assay: Fractional growth, 72 h seliciclib; type: cell-based, human; conditions: MDA-H2774 (Ovary), 15 μM seliciclib
Description: as §1

[11] = test system: NCI-H1703; assay: Fractional growth, 72 h seliciclib; type: cell-based, human; conditions: NCI-H1703 (Lung: NSCLC), 15 μM seliciclib
Description: as §1

[12] = test system: Panc 10.05; assay: Fractional growth, 72 h seliciclib; type: cell-based, human; conditions: Panc 10.05 (Pancreas), 15 μM seliciclib
Description: as §1

[13] = test system: S-117; assay: Fractional growth, 72 h seliciclib; type: cell-based, human; conditions: S-117 (Thyroid), 15 μM seliciclib
Description: as §1

[14] = test system: SW-1710; assay: Fractional growth, 72 h seliciclib; type: cell-based, human; conditions: SW-1710 (Bladder), 15 μM seliciclib
Description: as §1

[15] = test system: UMC-11; assay: Fractional growth, 72 h seliciclib; type: cell-based, human; conditions: UMC-11 (Lung), 15 μM seliciclib
Description: as §1

[16] = test system: H1650; assay: Cell line IC50 (Table 3); type: cell-based; conditions: Homo sapiens, NCI-H1650
[17] = test system: H2052; assay: Cell line IC50 (Table 3); type: cell-based; conditions: Homo sapiens, NCI-H2052
[18] = test system: LoVo; assay: Cell line IC50 (Table 3); type: cell-based; conditions: Homo sapiens
[19] = test system: Saos-2; assay: Cell line IC50 (Table 3); type: cell-based; conditions: Homo sapiens
[20] = test system: H292; assay: Cell line IC50 (Table 3); type: cell-based; conditions: Homo sapiens, NCI-H292
[21] = test system: Colo205; assay: Cell line IC50 (Table 3); type: cell-based; conditions: Homo sapiens, COLO 205
[22] = test system: HT-29; assay: Cell line IC50 (Table 3); type: cell-based; conditions: Homo sapiens
[23] = test system: NCI-H460; assay: Cell line IC50 (Table 3); type: cell-based; conditions: Homo sapiens
[24] = test system: LP-1; assay: Cell line IC50 (Table 3); type: cell-based; conditions: Homo sapiens
[25] = test system: A549; assay: Cell line IC50 (Table 3); type: cell-based; conditions: Homo sapiens
[26] = test system: MESSA; assay: Cell line IC50 (Table 3); type: cell-based; conditions: Homo sapiens, MES-SA
[27] = test system: HCT 116; assay: Cell line IC50 (Table 3); type: cell-based; conditions: Homo sapiens
[28] = test system: MCF7; assay: Cell line IC50 (Table 3); type: cell-based; conditions: Homo sapiens
[29] = test system: NCI-H929; assay: Cell line IC50 (Table 3); type: cell-based; conditions: Homo sapiens
[30] = test system: A2780; assay: Cell line IC50 (Table 3); type: cell-based; conditions: Homo sapiens
[31] = test system: H358; assay: Cell line IC50 (Table 3); type: cell-based; conditions: Homo sapiens, NCI-H358
[32] = test system: cell lines of Table 3; assay: Cell line panel of Table 3, summary over cell lines; type: cell-based; conditions: Homo sapiens, read-out: Median IC50

## CC[C@H](CO)Nc1nc(NCc2ccccc2)c2ncn(C(C)C)c2n1 [seliciclib, roscovitine]
[1]
  Fractional Growth: 0.4977
[2]
  Fractional Growth: 0.154
[3]
  Fractional Growth: 0.393
[4]
  Fractional Growth: 0.5086
[5]
  Fractional Growth: 0.4812
[6]
  Fractional Growth: 0.5024
[7]
  Fractional Growth: 0.5243
[8]
  Fractional Growth: 0.4753
[9]
  Fractional Growth: 0.1711
[10]
  Fractional Growth: 0.491
[11]
  Fractional Growth: 0.4772
[12]
  Fractional Growth: 0.493
[13]
  Fractional Growth: 0.696
[14]
  Fractional Growth: 0.6764
[15]
  Fractional Growth: 0.4912
[16]
  IC50: 21.9 µM
[17]
  IC50: 17.1 µM
[18]
  IC50: 17.1 µM
[19]
  IC50: 17 µM
[20]
  IC50: 15.4 µM
[21]
  IC50: 13.3 µM
[22]
  IC50: 12.5 µM
[23]
  IC50: 12.3 µM
[24]
  IC50: 11.7 µM
[25]
  IC50: 10.5 µM
[26]
  IC50: 10 µM
[27]
  IC50: 9.5 µM
[28]
  IC50: 9.4 µM
[29]
  IC50: 8.1 µM
[30]
  IC50: 6.7 µM
[31]
  IC50: 5.8 µM
[32]
  IC50: 12.3 µM
